Data published in publication PMC4333404, “Bcl2 inhibits recruitment of Mre11 complex to DNA double-strand breaks in response to high-linear energy transfer radiation”.
No constants are given. Whether binding was seen depends on the method and setting. Binding seen in cells or lysates may run through a third protein. Some binding calls cover weakened binding; strength is not graded here.

Protein sequences, listed by entry. Tags and fused reporters are not part of them.
UniProt P10415: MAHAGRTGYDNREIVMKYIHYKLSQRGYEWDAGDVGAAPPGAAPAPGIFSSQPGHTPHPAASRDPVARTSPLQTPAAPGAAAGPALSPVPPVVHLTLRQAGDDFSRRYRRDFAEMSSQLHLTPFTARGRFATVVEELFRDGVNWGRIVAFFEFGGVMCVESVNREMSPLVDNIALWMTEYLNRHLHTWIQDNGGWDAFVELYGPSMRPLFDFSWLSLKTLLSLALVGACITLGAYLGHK
UniProt P12956: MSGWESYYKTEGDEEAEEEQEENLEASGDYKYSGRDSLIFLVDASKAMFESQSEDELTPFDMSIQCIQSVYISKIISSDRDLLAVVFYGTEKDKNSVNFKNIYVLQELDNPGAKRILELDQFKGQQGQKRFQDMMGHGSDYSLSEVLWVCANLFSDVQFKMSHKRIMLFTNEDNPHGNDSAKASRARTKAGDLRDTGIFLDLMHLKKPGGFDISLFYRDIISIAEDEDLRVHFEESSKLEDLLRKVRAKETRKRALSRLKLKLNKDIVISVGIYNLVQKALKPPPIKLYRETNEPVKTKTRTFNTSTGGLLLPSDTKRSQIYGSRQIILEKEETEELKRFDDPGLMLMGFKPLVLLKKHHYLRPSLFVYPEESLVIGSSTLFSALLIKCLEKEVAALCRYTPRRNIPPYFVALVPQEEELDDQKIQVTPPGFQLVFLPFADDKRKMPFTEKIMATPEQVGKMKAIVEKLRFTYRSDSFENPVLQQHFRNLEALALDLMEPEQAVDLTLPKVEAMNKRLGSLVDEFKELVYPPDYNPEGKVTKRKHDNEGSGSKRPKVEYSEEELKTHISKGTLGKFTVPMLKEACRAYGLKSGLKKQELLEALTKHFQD

Target: Bcl2, wild type, overexpressed in BEAS-2B cells (UniProt P10415)
Test: co-IP; BEAS-2B cells overexpressing Bcl2, treated with increasing doses (0.1-1 Gy) of 56Fe, 28Si or X-ray; 1% CHAPS lysis buffer; agarose-conjugated Bcl2 antibody; western blot of Mre11 and Ku70

- binding: binds
Substance: Ku70, endogenous in BEAS-2B cells (from UniProt P12956 1-609)
